PubChem BioAssay AID504764 – Drosophila RNAi Screening Center, 2011

Test: 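Genes whose knock-down alters Notch-dependent transcription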 (primary screen)
System: Drosophila Kc167 cells
Reagent: long dsRNA against Drosophila genes
Timing: about 5 days (4 days dsRNA, then 24 h after transfection)
Conditions: transfection of constitutively active membrane-tethered Notch lacking the extracellular domain, read 24 h later
Measurement: 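Firefly luciferase from an E(spl)m3 reporter with active Notch, plus control-promoter and uninduced reporter wells for normalisation; unnormalised counts, duplicate wells a and b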
Reading the numbers: induced reporter light, run 1, well a and induced reporter light, run 1, well b: higher = more light from the Notch target reporter with active Notch; control promoter light, run 1, well a and control promoter light, run 1, well b: higher = more light from the viral control promoter (cell number, transfection, viability); uninduced reporter light, run 1, well a: higher = more light from the Notch target reporter without active Notch
Call rule: 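Hit if the duplicate-averaged log2 ratio of induced to control-promoter light gives a plate-wise z beyond ±2, or induced to uninduced beyond ±1.8; weak-control or discordant-duplicate wells dropped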
Calls: active = modifier hit (raised or lowered Notch signal); inactive = not a hit
The deposit covers about 22,000 reagents; below is a random part of those that have a named target and a result. Over the whole deposit, 403 (1.9%) got an active call. 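Unnormalised raw counts per well; ratio z-scores behind the hit calls and whether each hit raises or lowers signal are not deposited.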 Entries without a mark were called inactive. Names joined by + are all predicted targets of the reagent. Not stated in the record: the amount of reagent.

| Target gene | DRSC id | induced reporter light, run 1, well a | induced reporter light, run 1, well b | control promoter light, run 1, well a | control promoter light, run 1, well b | uninduced reporter light, run 1, well a |
| --- | --- | --- | --- | --- | --- | --- |
| Spt20 | DRSC10280 | 7380 | 5945 | 9042 | 6870 | 2210 |
| CG30192 | DRSC03977 | 72665 | 69445 | 82290 | 76830 | 7570 |
| CG3698 | DRSC11749 | 1.22e5 | 1.70e5 | 87400 | 1.01e5 | 9645 |
| CG31219 | DRSC15140 | 1.87e5 | 1.77e5 | 2.29e5 | 2.12e5 | 14805 |
| CG11630 | DRSC03696 | 68400 | 58570 | 1.04e5 | 75220 | 4210 |
| Nt5b (5' nucleotidase B) | DRSC19976 | 1.70e5 | 1.27e5 | 1.53e5 | 1.12e5 | 10445 |
| Nt5b (5' nucleotidase B) | DRSC19977 | 66500 | 55150 | 61355 | 67205 | 9310 |
| Nt5b (5' nucleotidase B) | DRSC19978 | 74245 | 65725 | 68765 | 60205 | 9110 |
| CG13887 | DRSC08357 | 72670 | 64610 | 1.27e5 | 1.52e5 | 7205 |
| Gnpat (Glyceronephosphate O-acyltransferase) | DRSC16960 | 2.15e5 | 1.91e5 | 2.24e5 | 2.17e5 | 14795 |
| CG11608 | DRSC14334 | 8185 | 9270 | 10765 | 12350 | 3355 |
| Hk (Hyperkinetic) | DRSC17638 | 56345 | 50165 | 24542 | 20660 | 4730 |
| Hk (Hyperkinetic) | DRSC18674 | 33195 | 24500 | 9505 | 9275 | 8500 |
| PCNA (Proliferating cell nuclear antigen) | DRSC07653 | 44330 | 64825 | 73755 | 88985 | 5010 |
| Smyd4-2 (SET and MYND domain containing, class 4, member 2) | DRSC10126 | 82990 | 81220 | 1.58e5 | 1.23e5 | 7590 |
| CG13526 | DRSC04168 | 1.76e5 | 1.39e5 | 1.60e5 | 1.53e5 | 11700 |
| Tango5 (Transport and Golgi organization 5) | DRSC18023 | 1.84e5 | 1.49e5 | 2.44e5 | 2.19e5 | 11800 |
| scra (scraps) | DRSC07679 | 1.67e5 | 2.05e5 | 1.91e5 | 1.85e5 | 15465 |
| CG12376 | DRSC06144 | 1.68e5 | 1.88e5 | 1.97e5 | 1.66e5 | 14165 |
| Uros2 (Uroporphyrinogen III synthase 2) | DRSC16505 | 2.39e5 | 2.45e5 | 2.59e5 | 2.50e5 | 20475 |
| CG4707 | DRSC04483 | 1.01e5 | 99150 | 63460 | 70715 | 6805 |
| CG10764 | DRSC06000 | 94560 | 84860 | 1.35e5 | 1.49e5 | 7700 |
| Yp1 (Yolk protein 1) | DRSC18731 | 1.28e5 | 1.55e5 | 3.11e5 | 2.80e5 | 9995 |

Ordered by “control promoter light, run 1, well b” (descending): 9 of the entries above
| Target gene | DRSC id | induced reporter light, run 1, well a | induced reporter light, run 1, well b | control promoter light, run 1, well a | control promoter light, run 1, well b | uninduced reporter light, run 1, well a |
| --- | --- | --- | --- | --- | --- | --- |
| Gnpat (Glyceronephosphate O-acyltransferase) | DRSC16960 | 2.15e5 | 1.91e5 | 2.24e5 | 2.17e5 | 14795 |
| CG13526 | DRSC04168 | 1.76e5 | 1.39e5 | 1.60e5 | 1.53e5 | 11700 |
| CG13887 | DRSC08357 | 72670 | 64610 | 1.27e5 | 1.52e5 | 7205 |
| Smyd4-2 (SET and MYND domain containing, class 4, member 2) | DRSC10126 | 82990 | 81220 | 1.58e5 | 1.23e5 | 7590 |
| PCNA (Proliferating cell nuclear antigen) | DRSC07653 | 44330 | 64825 | 73755 | 88985 | 5010 |
| Nt5b (5' nucleotidase B) | DRSC19978 | 74245 | 65725 | 68765 | 60205 | 9110 |
| Hk (Hyperkinetic) | DRSC17638 | 56345 | 50165 | 24542 | 20660 | 4730 |
| CG11608 | DRSC14334 | 8185 | 9270 | 10765 | 12350 | 3355 |
| Hk (Hyperkinetic) | DRSC18674 | 33195 | 24500 | 9505 | 9275 | 8500 |

The list goes on.
| Target gene | DRSC id | induced reporter light, run 1, well a | induced reporter light, run 1, well b | control promoter light, run 1, well a | control promoter light, run 1, well b | uninduced reporter light, run 1, well a |
| --- | --- | --- | --- | --- | --- | --- |
| Rcd-1 (Required for cell differentiation 1) | DRSC19569 | 57965 | 69670 | 68790 | 67875 | 9130 |
| Rpn8 (Regulatory particle non-ATPase 8) | DRSC04624 | 13775 | 11195 | 15670 | 21065 | 770 |
| Roe1 | DRSC07534 | 1.91e5 | 1.71e5 | 1.90e5 | 1.49e5 | 14020 |
| CG43902 | DRSC17999 | 1.03e5 | 82120 | 2.33e5 | 1.55e5 | 6985 |
| nur (nemuri) | DRSC01342 | 89600 | 84305 | 1.23e5 | 1.26e5 | 6360 |
| CG6683 | DRSC10694 | 1.01e5 | 1.08e5 | 81310 | 26425 | 10142 |
| Skadu | DRSC01490 | 65570 | 73830 | 57515 | 56060 | 5038 |
| DptA (Diptericin A) | DRSC07404 | 1.15e5 | 96670 | 1.04e5 | 1.25e5 | 1040 |
| CG18659 | DRSC06784 | 1.85e5 | 1.64e5 | 1.84e5 | 1.99e5 | 14290 |
| CG12490 | DRSC04123 | 2.29e5 | 2.00e5 | 2.20e5 | 1.93e5 | 17850 |
| Bub3 | DRSC14168 | 79910 | 1.04e5 | 1.11e5 | 1.08e5 | 8810 |
| CG31125 | DRSC13684 | 1.76e5 | 1.31e5 | 1.48e5 | 1.52e5 | 14010 |
| CG11695 | DRSC19416 | 35255 | 29580 | 67235 | 71875 | 4555 |
| CG8611 | DRSC19340 | 1.27e5 | 1.19e5 | 1.02e5 | 59275 | 9970 |
| Ipp (Inositol polyphosphate 1-phosphatase) | DRSC16718 | 2.51e5 | 2.32e5 | 2.27e5 | 2.22e5 | 17400 |
| Vinc (Vinculin) | DRSC18728 | 1.36e5 | 1.58e5 | 2.04e5 | 2.48e5 | 12215 |
| Marc (Mitochondrial amidoxime reducing component) | DRSC06614 | 1.72e5 | 1.50e5 | 2.16e5 | 2.18e5 | 14635 |
| sna (snail) | DRSC03613 | 1.23e5 | 1.44e5 | 1.32e5 | 1.41e5 | 9370 |
| CG13096 | DRSC02198 | 1.10e5 | 1.37e5 | 98500 | 1.33e5 | 14650 |
| Der-2 (Derlin-2) | DRSC15021 | 2.34e5 | 2.01e5 | 1.98e5 | 2.10e5 | 19890 |
| yellow-g | DRSC08575 | 96635 | 1.05e5 | 1.34e5 | 1.50e5 | 4385 |
| Vta1 (Vesicle trafficking 1) | DRSC08604 | 1.55e5 | 1.26e5 | 1.91e5 | 1.87e5 | 8642 |
| Snap29 (Synaptosomal-associated protein 29kDa) | DRSC04721 | 1.48e5 | 1.28e5 | 1.59e5 | 1.62e5 | 9925 |
| ZnT77C (Zinc transporter 77C) | DRSC11766 | 1.66e5 | 1.62e5 | 1.33e5 | 1.22e5 | 9092 |
| ZnT77C (Zinc transporter 77C) | DRSC11767 | 1.84e5 | 1.22e5 | 1.06e5 | 1.15e5 | 9985 |
| Vps16A (Vacuolar protein sorting 16A) | DRSC16422 | 98175 | 1.42e5 | 2.09e5 | 1.60e5 | 7992 |
| Fbl6 (F-box and leucine-rich repeat protein 6) | DRSC06335 | 1.60e5 | 1.43e5 | 1.62e5 | 1.59e5 | 14010 |
| Hph (HIF prolyl hydroxylase) | DRSC12164 | 2.21e5 | 1.37e5 | 2.46e5 | 1.57e5 | 12255 |
| Hph (HIF prolyl hydroxylase) | DRSC12251 | 25435 | 18905 | 16550 | 15540 | 2138 |
| Cpr49Ah (Cuticular protein 49Ah) | DRSC07204 | 85395 | 80745 | 1.11e5 | 87680 | 8820 |
| TfIIA-L (Transcription factor IIA L) | DRSC16882 | 86490 | 89795 | 99380 | 1.08e5 | 7088 |
| stg (string) | DRSC17071 | 14040 | 12155 | 19600 | 17440 | 1140 |
| rho-7 (rhomboid-7) | DRSC07304 | 1.15e5 | 1.10e5 | 1.13e5 | 1.10e5 | 8625 |
| CG17508 | DRSC07771 | 1.18e5 | 1.70e5 | 3.15e5 | 2.26e5 | 8460 |
| tkv + CR14033 + tRNA:Asp-GTC-2-1 + 1 more | DRSC00861 | 1.12e5 | 98180 | 1.87e5 | 1.56e5 | 8075 |
| Rab3-GAP (Rab3 GTPase activating protein) | DRSC02001 | 2.08e5 | 2.11e5 | 1.52e5 | 1.77e5 | 16505 |
| CG32808 | DRSC17689 | 70695 | 86160 | 96390 | 94930 | 6335 |
| Decay (Death executioner caspase related to Apopain/Yama) | DRSC16930 | 2.28e5 | 2.14e5 | 2.32e5 | 2.50e5 | 18040 |
| Fas1 (Fasciclin 1) | DRSC16669 | 2.15e5 | 2.02e5 | 1.88e5 | 2.34e5 | 15300 |
| Usp39 (Ubiquitin specific protease 39) | DRSC20032 | 1.04e5 | 92230 | 76630 | 45865 | 6925 |
| wac (wee Augmin) | DRSC08349 | 1.05e5 (active) | 1.00e5 | 2.44e5 | 2.42e5 | 8320 |
